The record followed here is publication PMC5415106.

By UniProt entry, the sequences of proteins in these tests, tags left out.
UniProt P0AGE0: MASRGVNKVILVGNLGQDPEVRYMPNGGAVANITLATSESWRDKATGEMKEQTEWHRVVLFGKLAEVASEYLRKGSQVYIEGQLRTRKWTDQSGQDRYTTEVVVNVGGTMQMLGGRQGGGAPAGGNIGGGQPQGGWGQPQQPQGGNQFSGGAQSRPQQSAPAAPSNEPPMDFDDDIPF

For this assay, the target named is E. coli SSB (Single-stranded-DNA binding protein) (E. coli) (UniProt P0AGE0). Description: pull-down; control of the Dpb11-RPA pull-down in which RPA was replaced with E. coli SSB; which protein carried GST is not told.

Results are given in words; binding and its absence hold for the method and conditions named. Binding seen in cells or lysates may run through a third protein.

B1: PKA-Dpb11 (radiolabeled Dpb11) (protein, UniProt P47027 1-764)
chain: MKPFQGITFCPTAINNEILAKKISKKIIKLGGIFSKDLTRQVNVLVVGSTTNTNKFKFAVKHRFDIIFIDIQAIDDIYQLWLSGENILPDSNTATMTGSTYEMLKILYRRFSFKYLHNFNIFIGRITDTNITSIDSLVRSIKKLGCSSYNYQNFVIKDTSSHNDDDDQGQNGQISIFVTDTLLGARVNAAIEQNIPIVHFKWILDCQKRSALLPYDPYYLLPNIKDLPYDSIGSNSCDCWDKINTTFPTNIDAQSSLQRQQSSSTLTPSLPKTSSLLNKFKPKGEKIWDKAMSLQQHSKTNFSVLGQSPLSINNKQEDLSDNSTLIFKNCAFIIHHIFPGNHRSILTKIVVQNGGKIETSYLSGIYDHSYYIIPSNKALDSFNDLPEIIDDNDGIVTEFFIERCLYYQKLLHPIDLWSKPFLSTIEFQVSSSSKLLHHEFSSSPFLNVTITGFSGVELLHLTKVLNLLKPMGINYVEYLNKSTDILLINLAALPSIPKTHPLWSNEFSDLFTQFCINNNNDDPGDNNRKDFQNNSILRNSMKRKIEYIKKFHSIPVVTPAFIFKLLSAASGENNEIFLNNIKWCIICPRGHKDDFKCKIKKPYYTSISSEKKYQNNDPKIDKTILLKRNNSSLSEHSMKDTKNELLQKIRETDSGRKKRSVSSSIMDVSSERQMPDTKRIKLESLPKNFVPKQIKRTTSWGTIMSENVPTEQPTAISNPEEIPRTEEVSHTQVTYGSIQDKKRTASLEKPMRRQTRNQTKELDS
modifications: 32P-phosphate on the PKA tag
Take B1: the binding entry is “no binding”.
